This passage reports AC50 results from PubChem BioAssay AID1487 (National Center for Advancing Translational Sciences (NCATS), 2009).

The nature of the assay: qHTS Assay for Modulators of Lamin A Splicing. As to conditions: HeLa LMNA splicing GFP/RFP minigene ratio, 48 h. In a few lines: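 S3 HeLa stable clones carrying a lamin A-EGFP splicing minigene plus DsRed2 were seeded at 600 cells/well in Opti-MEM with 2% FBS, pin-dosed and incubated 48 h at 37°C. Acumen cytometry (488 nm) gave the GFP/RFP total-intensity ratio.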
Background: In qHTS, concentration-response curves come from the screen itself.

The mark [1] stands for this setting: measured here: GFP splicing reporter channel.
The mark [2] stands for this setting: measured here: RFP viability control channel.

Values joined by “and” are separate entries in the source; they are usually repeats but may differ in a detail not shown here. Equal entries are not always repeated. Some of the results follow. Shown are side measurements of this screen, not its main read-out; they come without a call. Most of these compounds were active or inconclusive in the main read-out, so they are no random draw. Potencies come from curve fits of mixed quality, noted in brackets.

In the case of `O=C(O)c1c(Cl)c(Cl)c(Cl)c(Cl)c1-c1c2cc(I)c(=O)c(I)c-2oc2c(I)c(O)c(I)cc12`, the AC50 under setting [1] was 4.47 µM [rising, partial curve, poor fit] and the half-maximal activity concentration (AC50) under setting [2] was 0.398 µM [rising, single point].
In the case of `COc1ccc(S(=O)(=O)NCC(c2ccc(N(C)C)cc2)N2CCc3ccccc32)cc1F` (centres undefined), under setting [1], the AC50 is 14.1 µM [falling, single point].
Consider `COc1ccc(/C=C2\CCCC3C2=NC(=S)NC3c2ccc(OC)cc2)cc1` (centres undefined), for which the AC50 by setting is: under setting [1], 3.98 µM [rising, full curve, poor fit]; under setting [2], 7.08 µM [rising, partial curve].
As to `Cc1nn2c(=O)cc(COC(=O)c3cccc(NC(=O)c4ccc(F)cc4)c3)nc2s1`, the AC50 under setting [2] is 20 µM [rising, partial curve, poor fit].
On to `O=C(Nc1ccc2c(c1)OCCO2)c1ccc(CN2CCOCC2)cc1`, for which the AC50 runs as follows: under setting [1], 1.78 µM [rising, partial curve, poor fit]; under setting [2], 12.6 µM [rising, partial curve].
As to `CCn1c(SCC(=O)N(C(C)C)C(C)C)nnc1-c1cc2ccccc2cc1O`, under setting [2], the AC50 was 11.2 µM [rising, partial curve].
In the case of `NCc1ccccc1CC(=O)N[C@@H]1C(=O)N2C(C(=O)O)=C(CSc3nnnn3CC(=O)O)CS[C@@H]12`, the concentration at half-maximal activity (AC50) under setting [2] is 0.0562 µM [falling, full curve, poor fit].
For `COc1ccc(-c2ccc(CCC(=O)O)n2NC(=O)c2ccc(C(C)(C)C)cc2)cc1`, the half-maximal activity concentration (AC50) under setting [1] was 0.02 µM [rising, full curve, poor fit].
As for `c1ccc(-c2cc3c(NCC4COc5ccccc5O4)ncnc3s2)cc1` (centres undefined), the half-maximal activity concentration (AC50) under setting [1] was 7.94 µM [rising, partial curve] and the concentration at half-maximal activity (AC50) under setting [2] was 11.2 µM [rising, partial curve].
Take `CC(C)CNC(=O)c1cc(-c2ccc(Cl)c(Cl)c2)on1`: the half-maximal activity concentration (AC50) by setting is: under setting [1], 0.282 µM [rising, full curve, poor fit]; under setting [2], 0.224 µM [rising, full curve, poor fit].
Regarding `Cc1ccc(N(CC(=O)NC(C)(C)C)C(=O)CNC(=O)c2cccs2)cc1C`, the concentration at half-maximal activity (AC50) was 0.00447 µM [falling, full curve, poor fit] under setting [1] and 0.00891 µM [falling, full curve, poor fit] under setting [2].
Regarding `O=C(Cn1cnc2ccccc2c1=O)Nc1ccc(N2CCOCC2)cc1`, the AC50 is, setting by setting: under setting [1], 4.47 µM [falling, full curve, poor fit]; under setting [2], 28.2 µM [falling, single point].
For `NC(N)=O`, the AC50 reads like this: under setting [1], 0.794 µM [falling, single point]; under setting [2], 0.794 µM [falling, single point].
On to `CCCC(C)NC(=S)NC(=O)c1cc(S(=O)(=O)N2CCOCC2)ccc1C` (centres undefined), for which the concentration at half-maximal activity (AC50) by setting is: under setting [1], 10 µM [rising, partial curve]; under setting [2], 15.8 µM [rising, partial curve].
For the compound `CCCS(=O)(=O)c1c(S(=O)(=O)CCC)c2ccc(C(C)=O)cn2c1C(=O)OC`, the half-maximal activity concentration (AC50) under setting [1] is 17.8 µM [rising, partial curve, poor fit].
On to `Cc1ccc(C(=O)C2Oc3ccccc3C3CC(c4ccc(C)cc4)=NN23)cc1` (centres undefined), for which the AC50 under setting [2] is 14.1 µM [rising, partial curve].
Turning to `C=CCSc1nccc(-c2nn(-c3ccc(C)cc3)ccc2=O)n1`, the AC50 under setting [2] is 22.4 µM [rising, single point].
Take `O=C(Nc1ccc2[nH]c(=O)[nH]c2c1)c1ccc(Cl)c(Cl)c1`: the half-maximal activity concentration (AC50) by setting is: under setting [1], 0.0224 µM [falling, full curve, poor fit]; under setting [2], 0.01 µM [falling, full curve, poor fit].
For `CCN1C=C(Cc2cccs2)C2=C(C1)C(c1cccs1)C(C#N)=C(N)O2` (centres undefined), the AC50 under setting [1] was 14.1 µM [rising, single point] and the AC50 under setting [2] was 12.6 µM [rising, single point].
Take `O=C(N/C=N/OCc1ccc(Cl)cc1Cl)NOCc1ncc(C(F)(F)F)cc1Cl`: the AC50 under setting [2] is 11.2 µM [rising, partial curve, poor fit].
`Cc1c(Cl)cccc1NC(=O)C1CCN(c2nc3ccccc3[nH]2)CC1`: the AC50 reads like this: under setting [1], 0.447 µM [rising, single point]; under setting [2], 0.562 µM [rising, single point].
Consider `CCCN(C(=O)Nc1cn(CC(C)C)c(=O)c2ccccc12)c1ccc(F)cc1`, for which the concentration at half-maximal activity (AC50) under setting [1] is 10 µM [falling, partial curve, poor fit].
Turning to `Cc1ccc(CCNC(=O)C23CN(Cc4ccccc4)CC2C(c2ccc([N+](=O)[O-])cc2)=NO3)cc1` (centres undefined), under setting [1], the concentration at half-maximal activity (AC50) is 11.2 µM [rising, single point].
With `O=C(CN1CCN(c2ccccc2F)CC1)N1N=CCC1c1ccccc1` (centres undefined), the half-maximal activity concentration (AC50) is 2.24 µM [rising, partial curve, poor fit] under setting [1] and 0.0631 µM [rising, full curve, poor fit] under setting [2].
For the compound `COc1ccccc1NC(=O)Cn1c(=O)n(-c2ccccc2)c(=O)c2oc3ccccc3c21`, the AC50 under setting [1] is 2.51 µM [falling, partial curve].
Take `O=C(OCCN1C(=O)c2cccc3c(N4CCOCC4)ccc(c23)C1=O)c1cccc(Cl)c1`: the concentration at half-maximal activity (AC50) under setting [2] was 22.4 µM [rising, single point].
Take `S=c1[nH]c2ccc3ccccc3c2[nH]1`: under setting [1], the concentration at half-maximal activity (AC50) is 0.224 µM [falling, full curve, poor fit].
With `c1csc(-c2csc3ncnc(NCCCN4CCOCC4)c23)c1`, the AC50 was 12.6 µM [rising, single point] under setting [1] and 12.6 µM [rising, partial curve] under setting [2].
On to `CC(C)C(=O)OCc1cc(=O)n2nc(C3CC3)sc2n1`, for which the AC50 under setting [1] was 0.00891 µM [rising, full curve].
On the same count and under the same terms, the result for `N#CCSc1nc2ccccc2c2nc3ccccc3n12` reads 0.112 µM [rising, full curve, poor fit]; that for `COc1cc(/C=C(\C#N)c2nc3ccccc3[nH]2)cc(Br)c1OCc1ccccc1`, 2.82 µM [rising, partial curve, poor fit].
`Cc1cc(C)cc(NC(=O)CSc2nc3sc4c(c3c(=O)[nH]2)CCCC4)c1`: under setting [2], the AC50 is 0.112 µM [falling, partial curve, poor fit].
Consider `COc1ccc(C(=O)Sc2nncc3ccccc23)cc1`, for which the AC50 under setting [1] was 0.0112 µM [falling, full curve, poor fit].
On the same count and under the same terms, the value for `COc1ccc(C)cc1NC(=O)CCN1CC(C)OC(C)C1` (centres undefined) was 12.6 µM [falling, partial curve, poor fit].
As to `CCCCOc1ccc(NC(=O)[C@@H]2CCCN2C(=O)C2CCN(S(=O)(=O)c3ccc(C)cc3)CC2)cc1`, the half-maximal activity concentration (AC50) by setting is: under setting [1], 14.1 µM [rising, single point]; under setting [2], 17.8 µM [rising, single point].
As for `O=C(NCCc1ccc(Cl)cc1)c1ccc(CSCc2cccc(Cl)c2)o1`, under setting [2], the concentration at half-maximal activity (AC50) is 14.1 µM [rising, single point].
Turning to `Cc1cc(-c2ccccc2)nc(N2CCN(c3ccccn3)CC2)n1`, the AC50 under setting [1] is 17.8 µM [rising, partial curve, poor fit] and the AC50 under setting [2] is 12.6 µM [rising, single point].
In the case of `Cc1cccc2nc(-c3ccccc3)nc(N[C@@H](CO)c3ccccc3)c12`, the AC50 under setting [2] was 14.1 µM [rising, partial curve].
`O=C(Nc1ccc(N2CCOCC2)cc1)c1ccc2c(c1)OCO2`: the concentration at half-maximal activity (AC50) under setting [1] was 17.8 µM [falling, partial curve, poor fit].
`Cc1nn(CC(=O)Nc2cc(S(=O)(=O)N(C)C)ccc2Cl)c(C)c1[N+](=O)[O-]`: the concentration at half-maximal activity (AC50) was 20 µM [rising, partial curve, poor fit] under setting [1] and 31.6 µM [rising, single point] under setting [2].
As for `Cc1cc(C)cc(OCC(=O)N2CCC(c3nc4ccccc4s3)CC2)c1`, the AC50 reads like this: under setting [1], 7.94 µM [falling, partial curve, poor fit]; under setting [2], 0.00447 µM [falling, full curve, poor fit].
For the compound `CC(/C=C1\SC(=S)N(NC(=O)c2ccc(O)cc2)C1=O)=C\c1ccccc1`, under setting [1], the half-maximal activity concentration (AC50) is 0.00501 µM [falling, full curve].
For the compound `CC(=O)C1=C(S(=O)(=O)c2ccc(C)cc2)CS(=O)(=O)C1`, under setting [2], the AC50 is 22.4 µM [rising, partial curve].
As for `C/C=C/c1cc(CN2CCN(c3ccccc3)CC2)c(O)c(OC)c1`, the half-maximal activity concentration (AC50) reads like this: under setting [1], 0.00316 µM [falling, full curve]; under setting [2], 12.6 µM [rising, single point].
Take `Cn1c([N+](=O)[O-])cnc1COC(N)=O`: the concentration at half-maximal activity (AC50) was 251 nM [falling, full curve] and 501 nM [falling, full curve, poor fit] under setting [1]; 0.251 µM [falling, full curve, poor fit] under setting [2].
As to `Cn1cccc1/C=N/n1c(-c2ccc(Cl)cc2Cl)n[nH]c1=S`, under setting [2], the half-maximal activity concentration (AC50) was 17.8 µM [rising, single point].
As for `COCCCNC(=S)NC1CCCCC1`, the AC50 under setting [2] is 35.5 µM [rising, single point].
In the case of `CCc1ccc(CC2S/C(=C(\C#N)C(C)=O)NC2=O)cc1` (centres undefined), the concentration at half-maximal activity (AC50) by setting is: under setting [1], 4.47 µM [rising, partial curve]; under setting [2], 3.16 µM [rising, partial curve].
With `CCC(SC1=N/C(=C/c2ccccc2)C(=O)N1c1ccccc1)C(=O)Nc1cc(C)on1` (centres undefined), the concentration at half-maximal activity (AC50) under setting [2] is 6.31 µM [rising, partial curve, poor fit].
Regarding `CCCCc1nc2c(c3c1C[C@H](C)OC3)CN(C(=O)COC)CC2`, the concentration at half-maximal activity (AC50) under setting [1] is 0.000891 µM [rising, full curve, poor fit].
For `Cc1cc(F)ccc1NC(=O)CCn1nc(C)c(S(=O)(=O)N2CCCCC2)c1C`, the AC50 under setting [1] is 39.8 µM [rising, partial curve, poor fit].
In the case of `CCOc1ccc(-c2cc(C(=O)NCCc3ccc(OC)c(OC)c3)c3c(-c4ccc(F)cc4)[nH]nc3n2)cc1`, the AC50 was 0.891 µM [falling, partial curve, poor fit] under setting [1] and 17.8 µM [falling, partial curve, poor fit] under setting [2].

A word on the AC50: it is the midpoint of the concentration-response curve, whichever way the signal moves.
